Data as given in PubChem BioAssay AID504774 (Drosophila RNAi Screening Center, 2011).
The deposit covers about 23,000 reagents; below is a random part of those that have a named target and a result. 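Values are quantile-normalised luminescence on an arbitrary scale; higher means more cells surviving MMS.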 Reagents against one gene are numbered here. Further read-outs or replicates are left out here.

Screen: 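Genes required for cells to withstand methyl methanesulphonate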 (primary screen)
System: Drosophila Kc167 cells
Reagents: long dsRNA against Drosophila genes, about 0.25 µg dsRNA per well
Timing: about 6 days: 3 days knock-down, then 3 days with or without MMS
Challenge: methyl methanesulphonate 0.004% (w/v) for 3 days after knock-down
Read-out: 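Viability in wells given MMS, read as ATP luminescence, normalised by quantiles plate by plate and averaged across replicates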
Direction: mean viability with MMS and viability with MMS: higher = more surviving cells after MMS

The opening 4 records, ahead of the listing:
no.	target gene	reagent no.	mean viability with MMS	viability with MMS, replicate 1
1	chp (chaoptin)	1	3.42e6	3.93e6
2	psidin (phagocyte signaling impaired)	1	3.64e6	4.23e6
3	TyrRS-m (Tyrosyl-tRNA synthetase, mitochondrial)	1	3.03e6	2.79e6
4	Blos1	1	3.63e6	3.97e6

Results, repeating the preview:
no.	target gene	reagent no.	mean viability with MMS	viability with MMS, replicate 1
1	chp (chaoptin)	1	3.42e6	3.93e6
2	psidin (phagocyte signaling impaired)	1	3.64e6	4.23e6
3	TyrRS-m (Tyrosyl-tRNA synthetase, mitochondrial)	1	3.03e6	2.79e6
4	Blos1	1	3.63e6	3.97e6
5	CG9084	1	3.48e6	3.92e6
6	CG13978	1	3.53e6	3.97e6
7	Pkn (Protein kinase N)	1	3.48e6	3.92e6
8	Pkn (Protein kinase N)	2	3.55e6	4.00e6
9	CG13154	1	3.41e6	3.65e6
10	Gapdh2 (Glyceraldehyde 3 phosphate dehydrogenase 2)	1	3.48e6	3.97e6
11	pzg (putzig)	1	3.14e6	3.65e6
12	asRNA:CR33945 (antisense RNA:CR33945)	1	3.63e6	4.06e6
13	CG15330	1	3.63e6	4.09e6
14	CG9945	1	3.48e6	3.89e6
15	Pgm2b (Phosphoglucomutase 2b)	1	3.52e6	3.90e6
16	CG14275	1	3.55e6	4.04e6
17	pain (painless)	1	3.21e6	3.63e6
18	CG15464 (retired record)	1	3.56e6	4.04e6
19	CG15464 (retired record)	2	3.70e6	4.17e6
20	CG10903	1	3.41e6	3.90e6
21	CG5116	1	1.75e6	3.92e6
22	smash (smallish)	1	3.39e6	3.91e6
23	smash (smallish)	2	3.47e6	3.91e6
24	ninaE (neither inactivation nor afterpotential E)	1	3.57e6	4.04e6
25	Recs1	1	3.47e6	3.82e6
26	CG11679	1	3.43e6	3.68e6
27	CG7296	1	3.62e6	4.12e6
28	CG7296	2	3.49e6	3.99e6
29	CG43328	1	3.53e6	4.10e6
30	Usp10 (Ubiquitin specific protease 10)	1	3.60e6	4.06e6
31	Usp10 (Ubiquitin specific protease 10)	2	3.41e6	3.77e6
32	galectin	1	3.54e6	4.06e6
33	CG14342	1	3.61e6	4.04e6
34	senju	1	3.40e6	3.73e6
35	CG42268	1	3.49e6	3.91e6
36	CG42268	2	3.78e6	4.25e6
37	CG42268	3	3.35e6	3.83e6
38	RpS28b (Ribosomal protein S28b)	1	3.08e6	3.37e6
39	CG8008	1	3.55e6	4.05e6
40	su(w[a]) (suppressor of white-apricot)	1	3.03e6	3.67e6
41	CG2533	1	3.79e6	4.17e6
42	Vps20 (Vacuolar protein sorting 20)	1	3.57e6	3.93e6
43	CG17169	1	3.50e6	3.94e6
44	Rb97D (Ribonuclear protein at 97D)	1	4.20e6	4.88e6
45	Lcp65APsi (pseudo)	1	3.47e6	4.04e6
46	Lcp65APsi (pseudo)	2	3.72e6	4.22e6
